PubChem BioAssay AID1671190 (National Center for Advancing Translational Sciences (NCATS), 2021)
Among all 580,000 compounds or so, about 6,100 (1.1%) were called active. This list was built around the results that the source calls inconclusive (neither active nor inactive); the mix of calls is not that of the screen. Calls follow the shape of the dose curve; as a rule, active = well fitted inhibition curve with a large enough effect; inconclusive = small, poorly fitted or top-dose-only effect, or another doubt; inactive = no such curve, though single readings can be large or run the other way. Where the call is inconclusive, the potency comes from a doubtful curve fit.

Amino acid sequences for entries named in this document (tags omitted). A change or cut given only in a name is not applied to a line headed by its entry.
UniProt P18054: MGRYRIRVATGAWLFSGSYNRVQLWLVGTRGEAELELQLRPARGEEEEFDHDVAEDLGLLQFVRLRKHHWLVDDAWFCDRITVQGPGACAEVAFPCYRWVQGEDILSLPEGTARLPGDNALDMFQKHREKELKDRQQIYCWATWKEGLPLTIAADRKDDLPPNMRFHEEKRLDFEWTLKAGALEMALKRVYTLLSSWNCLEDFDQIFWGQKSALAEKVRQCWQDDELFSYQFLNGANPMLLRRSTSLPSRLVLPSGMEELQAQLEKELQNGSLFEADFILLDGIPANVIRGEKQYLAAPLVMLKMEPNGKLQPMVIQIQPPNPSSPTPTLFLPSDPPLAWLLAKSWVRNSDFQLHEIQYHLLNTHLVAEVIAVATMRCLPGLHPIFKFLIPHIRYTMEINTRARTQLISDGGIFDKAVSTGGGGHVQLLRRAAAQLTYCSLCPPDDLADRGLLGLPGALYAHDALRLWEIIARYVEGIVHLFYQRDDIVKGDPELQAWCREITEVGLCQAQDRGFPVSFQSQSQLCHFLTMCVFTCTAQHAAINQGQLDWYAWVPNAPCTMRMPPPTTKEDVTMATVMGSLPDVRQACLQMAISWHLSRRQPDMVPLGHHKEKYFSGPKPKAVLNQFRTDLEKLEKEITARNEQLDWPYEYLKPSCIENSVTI

biological target: Polyunsaturated fatty acid lipoxygenase ALOX12 (Homo sapiens) (UniProt P18054); test: Primary qHTS assay for inhibitors of human arachidonate 12S-lipoxygenase (ALOX12): Round 2; details: purified 12hLO, xylenol orange hydroperoxide absorbance; activity change, negative = inhibition: at 108 µM (top of the series) unless noted
Method in brief: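 Purified human 12hLO at 150 nM in 25 mM Hepes, 0.01% Triton X-100, pH 7.0, preincubated 15 min at room temperature with compound. Reaction started with 40 uM arachidonic acid, 30 min at room temperature. Hydroperoxide measured by Fe-xylenol orange, 573/405 nm absorbance ratio.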
% is scaled to controls: 0 for no effect and ±100 for the full control effect; potency is read from the fitted curve at half-maximal effect.

Q: How did the Potency turn out when `CCCCC(O)(c1ccccc1)C(CN1CCOCC1)c1ccccc1` (stereo not drawn) was run?
A: The Potency was inconclusive: 39.8 µM [inhibitor, partial curve].

Q: How did the Potency turn out when `CCC(C)Sc1nc2c(c(=O)[nH]c(=O)n2C)n1CC(O)COc1ccccc1C` (stereo not drawn) was run?
A: The Potency was inconclusive: 56.2 µM [inhibitor, partial curve, poor fit].

Q: `CC1CCN(CC(O)COc2ccc(OCC(O)CN3CCC(C)CC3)cc2)CC1` (stereo not drawn) was tested. Which “activity change, negative = inhibition” value did it give?
A: Its value is inactive: 0.429%.

Q: Which “activity change, negative = inhibition” value does the source give for `COc1cccc(N2C(=O)OCC23CCN(Cc2c[nH]c4ccccc24)C3)c1` (stereo not drawn) here?
A: Its value is inactive: 19.5% [at 176 µM].

Q: How did the “activity change, negative = inhibition” value turn out when `O=C(NCc1cccnc1)c1cc(Sc2cccc(Cl)c2)nc2ccccc12` was run?
A: Its value is inactive: -8.19%.

Q: With `COC(=O)c1sc(-c2ccccc2)cc1NC(=O)Nc1ccc(Cl)cc1` as the compound, how does the “activity change, negative = inhibition” value read?
A: Its value is inactive: -14%.

Q: With `CC1(C)N=C(SCC(=O)Nc2ccc(Cl)cc2)C(c2ccc(Cl)cc2)=N1` as the compound, how does the “activity change, negative = inhibition” value read?
A: Its value is inactive: -21.9%.

Q: For `Cc1ccc(C(=O)c2c(C)c(C)cc(C)c2C)cc1`, which “activity change, negative = inhibition” value is on record?
A: Its value is inactive: -1.09%.

Q: `O=[N+]([O-])c1ccc(N2CCCCC2)cc1SCCO` was tested. Which Potency did it give?
A: The Potency was inconclusive: 28.2 µM [inhibitor, partial curve, poor fit].

Q: `CCCC[P+](CCCC)(CCCC)Cc1ccc(NC(=O)[C@@H](Cc2ccc3ccccc3c2)NC(=NC2CCCCC2)NC2CCCCC2)cc1` was tested. Which Potency did it give?
A: The Potency was inconclusive: 14.1 µM [inhibitor, partial curve, poor fit].

Q: How did the Potency turn out when `O=C(Nc1cccc(S(=O)(=O)NC2=NCCC2)c1)C1(c2ccc(Cl)cc2)CCCC1` was run?
A: Its Potency is inconclusive: 100 µM [inhibitor, single point].

Q: With `CC(=O)Nc1c(S(=O)(=O)c2ccccc2)c2nc3ccccc3nc2n1Cc1ccccc1` as the compound, how does the “activity change, negative = inhibition” value read?
A: Its value is inactive: 0%.

Q: `COc1ccc(C2CC(c3ccccc3OC(C)=O)=NN2C(=O)/C=C/c2ccccc2)cc1` (stereo not drawn) was tested. Which “activity change, negative = inhibition” value did it give?
A: The value was inactive: -6.85%.

Q: `S=C(N/N=C/c1ccco1)NC1CC2CCC1C2` (stereo not drawn) was tested. Which Potency did it give?
A: The Potency was inconclusive: 44.7 µM [inhibitor, partial curve, poor fit].

Q: How did the “activity change, negative = inhibition” value turn out when `CCOC(=O)N1CCN(c2ncnc3nc[nH]c23)CC1` was run?
A: The value was inactive: 0.84%.

Q: Which Potency does the source give for `CC(C)N(Cc1nccn1C)C(=O)CC1C(=O)NCCN1Cc1ccc(F)c(F)c1` (stereo not drawn) here?
A: The Potency was inconclusive: 1.41 µM [inhibitor, full curve, poor fit].

Q: `O=C(c1ccccc1)N1C[C@@H](F)[C@@H](OCc2nc3ccc(C(F)(F)F)cc3[nH]2)C1` was tested. Which “activity change, negative = inhibition” value did it give?
A: Its value is inactive: -3.22% [at 176 µM].

Q: With `CCOc1ccccc1NC(=S)N1CCC(NC(=O)c2ccco2)CC1` as the compound, how does the Potency read?
A: The Potency was inconclusive: 70.8 µM [inhibitor, partial curve, poor fit].

Q: For `COc1ccc(OC)c(NC(=O)c2cnc(N3CCCCC3)c3ccccc23)c1`, which Potency is on record?
A: The Potency was inconclusive: 141 µM [inhibitor, partial curve, poor fit].

Q: How did the Potency turn out when `O=C1CSC(c2cccnc2)N1c1ccccc1` (stereo not drawn) was run?
A: Its Potency is inconclusive: 126 µM [inhibitor, partial curve, poor fit].

Q: `CCc1c(-c2ccccc2)ncn1Cc1cccc(-c2ccccc2)c1` was tested. Which Potency did it give?
A: Its Potency is inconclusive: 35.5 µM [inhibitor, partial curve].

Q: For `CCCCC1=CC2=CC(=O)C(C)(OC(=O)CC)C(=O)C2=CN1C1CCCC1` (stereo not drawn), which Potency is on record?
A: The Potency was inconclusive: 100 µM [inhibitor, partial curve, poor fit].

Q: With `CCc1ccc2[nH]c(=O)c(CN(CCCN3CCOCC3)C(=O)Nc3ccccc3)cc2c1` as the compound, how does the Potency read?
A: The Potency was inconclusive: 3.55 µM [inhibitor, full curve, poor fit].

Q: `NCC(=O)NC1CC2(CCN(C(=O)c3ccccc3)CC2)c2ccccc21` (stereo not drawn) was tested. Which “activity change, negative = inhibition” value did it give?
A: Its value is inactive: 42.1%.

Q: Which Potency does the source give for `CC1CCN(C(=O)CN2C(=O)COc3ccc(Cl)cc32)CC1` here?
A: Its Potency is inconclusive: 126 µM [inhibitor, single point].

Q: For `O=C(O)C1=CCC(c2ccc(Cl)c(Cl)c2)N(S(=O)(=O)c2ccc(F)cc2)C1c1cccc(F)c1` (stereo not drawn), which Potency is on record?
A: Its Potency is inconclusive: 79.4 µM [inhibitor, partial curve, poor fit].

Q: `CC1CN(CCCCN2C(=O)c3ccccc3C2=O)CC(C)O1` (stereo not drawn) was tested. Which Potency did it give?
A: Its Potency is inconclusive: 0.794 µM [inhibitor, full curve, poor fit].

Q: Which Potency does the source give for `COc1cc2c(cc1OC)CN(C(=O)c1ccc(N3CCCC3)c([N+](=O)[O-])c1)CC2` here?
A: Its Potency is inconclusive: 4.47 µM [inhibitor, full curve].

Q: With `NC(=O)CC(NC(=O)c1cccc(Br)c1)c1ccc(NC2CCC2)c([N+](=O)[O-])c1` (stereo not drawn) as the compound, how does the Potency read?
A: Its Potency is inconclusive: 39.8 µM [inhibitor, partial curve, poor fit].

Q: `O=S(=O)(c1ccc(NC(=S)NCCC(c2ccccc2)c2ccccc2)cc1)N1CCOCC1` was tested. Which Potency did it give?
A: Its Potency is active: 44.7 µM.

Q: How did the Potency turn out when `COC(=O)c1ccc(NS(=O)(=O)c2ccc3[nH]c4c(c3c2)CCCC4)cc1` was run?
A: Its Potency is inconclusive: 44.7 µM [inhibitor, partial curve, poor fit].

Q: Which Potency does the source give for `O=c1cc(-c2c(O)c3ccccc3n(Cc3ccccc3)c2=O)[nH][nH]1` here?
A: Its Potency is active: 25.1 µM.

Q: Which Potency does the source give for `COc1ccc(-c2cc(C(=O)N3CCCC3)c3ccccc3n2)c(OC)c1` here?
A: Its Potency is active: 17.8 µM.

Q: `Cc1ccc(N2CCC(NC(=O)Cc3ccccc3Cl)C2=O)cc1` (stereo not drawn) was tested. Which “activity change, negative = inhibition” value did it give?
A: The value was inactive: -11.8%.

Q: With `O=C(Cc1ccccc1)Nc1ccc(NC(=S)NC(=O)c2ccccc2)cc1` as the compound, how does the Potency read?
A: Its Potency is inconclusive: 31.6 µM [inhibitor, single point].

Q: How did the Potency turn out when `COCC(=O)N[C@@H]1CN(Cc2ccc(Cl)cc2F)C[C@H]1CO` was run?
A: Its Potency is inconclusive: 89.1 µM [inhibitor, single point].

Q: With `COC(=O)c1ccc(/C=C/C(=O)NCCC(c2ccccc2)c2ccccc2)cc1` as the compound, how does the “activity change, negative = inhibition” value read?
A: The value was inactive: 0.824%.

Q: With `Cc1cc(S(=O)(=O)NCC(=O)O)ccc1F` as the compound, how does the Potency read?
A: Its Potency is inconclusive: 28.2 µM [inhibitor, single point].

Q: `O=C(Nc1cccc(Cl)c1)OCc1cncs1` was tested. Which Potency did it give?
A: The Potency was inconclusive: 126 µM [inhibitor, partial curve, poor fit].

Q: With `CCCCN(C)C(=O)c1cc(=O)[nH]c2ccccc12` as the compound, how does the “activity change, negative = inhibition” value read?
A: The value was inactive: 5.07%.

Q: How did the “activity change, negative = inhibition” value turn out when `COc1ccc(CC(=O)N2N=C(c3ccc(F)cc3)CC2(O)C(F)(F)F)cc1` (stereo not drawn) was run?
A: The value was inactive: 4.55%.

Q: Which Potency does the source give for `CCCC(=O)Nc1ccc2c(c1)nc(CCN1CCCCC1)n2C` here?
A: The Potency was inconclusive: 89.1 µM [inhibitor, single point].

Q: For `O=C(CNC(=O)c1cccs1)NCCc1ccco1`, which Potency is on record?
A: The Potency was inconclusive: 31.6 µM [inhibitor, single point].

Q: Which Potency does the source give for `O=c1cnc2cnc(N3CCNCC3)nc2n1Cc1ccc(F)cc1` here?
A: The Potency was inconclusive: 31.6 µM [inhibitor, partial curve, poor fit].

Q: `S=C(NCCSc1ccc(Cl)cc1)Nc1cccc(Cl)c1` was tested. Which Potency did it give?
A: The Potency was active: 35.5 µM.

Q: Which “activity change, negative = inhibition” value does the source give for `Cc1cccc(N2C(=O)CC(N3CCN(Cc4ccc(Cl)cc4)CC3)C2=O)c1` (stereo not drawn) here?
A: The value was inactive: 33.2%.

Q: How did the Potency turn out when `COc1ccccc1OCC(=O)Nc1cc(-c2ccc(F)c(F)c2)no1` was run?
A: Its Potency is inconclusive: 56.2 µM [inhibitor, partial curve, poor fit].

Q: Which Potency does the source give for `Cc1ccc(C(=O)N/C(=C\c2ccc(-c3ccc(Br)cc3)o2)C(=O)NCCCN(C)C)cc1` here?
A: The Potency was inconclusive: 50.1 µM [inhibitor, partial curve, poor fit].

Q: Which “activity change, negative = inhibition” value does the source give for `O=C(Nc1cccc(Cl)c1)c1ccc(OC(=S)N2CCOCC2)cc1` here?
A: The value was inactive: 17.7%.

Q: Which Potency does the source give for `COc1ccc(C2CC(=O)Nc3nc(N)sc32)cc1OC` (stereo not drawn) here?
A: The Potency was inconclusive: 14.1 µM [inhibitor, partial curve, poor fit].

Q: With `CC(C)CC(NC(=O)/C(=C\c1ccco1)NC(=O)c1ccco1)C(=O)O` (stereo not drawn) as the compound, how does the Potency read?
A: The Potency was inconclusive: 39.8 µM [inhibitor, partial curve, poor fit].

Q: With `O=c1[nH]c(-[n+]2ccccc2)c(/C=N/NC([S-])=Nc2ccccc2)s1` as the compound, how does the “activity change, negative = inhibition” value read?
A: Its value is inactive: 11.1%.

Q: Which Potency does the source give for `C#CCOCCOCCOCCNc1nc(N2CCN(C(=O)[C@H](CCCCN)n3cc(CN)nn3)CC2)nc(N2CCN(C(=O)[C@H](CCCCN)n3cc([C@@H](N)CC(N)=O)nn3)CC2)n1` here?
A: Its Potency is inconclusive: 14.1 µM [inhibitor, full curve].

Q: How did the Potency turn out when `O=c1cc(CO)oc(C(Nc2ccccn2)c2ccc(F)cc2)c1O` (stereo not drawn) was run?
A: Its Potency is inconclusive: 10 µM [inhibitor, full curve, poor fit].

Q: For `CCC(C)[C@H](N)c1nnc(SCC(=O)c2ccc(Cl)cc2)o1` (stereo partly drawn), which Potency is on record?
A: The Potency was inconclusive: 141 µM [inhibitor, single point].

Q: With `Cc1cccc(C)c1NC(=O)C(c1ccncc1)n1c(=O)c(-c2cc3ccccc3[nH]2)nc2ccccc21` (stereo not drawn) as the compound, how does the Potency read?
A: Its Potency is inconclusive: 89.1 µM [inhibitor, partial curve, poor fit].

Q: How did the Potency turn out when `COc1ccccc1CN1C[C@@H]2C[C@@H](C3=Cc4cc(Cl)ccc4OC3)N3CCC[C@@]23C1=O` was run?
A: The Potency was inconclusive: 79.4 µM [inhibitor, partial curve, poor fit].

Q: How did the Potency turn out when `CCc1nnc(NC(=O)C(=O)c2cc(C)n(-c3ccccc3)c2C)s1` was run?
A: Its Potency is inconclusive: 79.4 µM [inhibitor, partial curve, poor fit].

Q: Which “activity change, negative = inhibition” value does the source give for `N#Cc1cn(-c2ccccc2)nc1C(=O)c1ccccc1` here?
A: Its value is inactive: 4.84%.

Q: Which Potency does the source give for `CCc1ccc(C(=O)C[n+]2cccc3cc(OC)ccc32)cc1` here?
A: Its Potency is inconclusive: 100 µM [inhibitor, single point].

Q: `Cc1cccc(C)c1NC(=O)N1CCC(n2cc(-c3cccnc3)nn2)CC1` was tested. Which Potency did it give?
A: Its Potency is inconclusive: 31.6 µM [inhibitor, partial curve].

Q: With `Cc1ccc(NC(=S)NCC2CCCO2)cc1` (stereo not drawn) as the compound, how does the “activity change, negative = inhibition” value read?
A: The value was inactive: -0.0958%.

Q: `CC(=O)Nc1sc(C)c(C)c1C#N` was tested. Which “activity change, negative = inhibition” value did it give?
A: Its value is inactive: -19.5%.

Q: With `O=C(N/N=C/c1cc(Br)c(O)c(Br)c1O)c1ccc2c(c1)OCCO2` as the compound, how does the Potency read?
A: Its Potency is inconclusive: 44.7 µM [inhibitor, partial curve, poor fit].

Q: For `CCCc1cc(NCc2cccnc2)n2nc(C)c(-c3ccccc3)c2n1`, which “activity change, negative = inhibition” value is on record?
A: Its value is inactive: 6.05%.

Q: How did the Potency turn out when `CCOC(=O)c1cc(C)sc1NC(=S)Nc1ccccc1` was run?
A: Its Potency is inconclusive: 44.7 µM [inhibitor, partial curve, poor fit].

Q: How did the “activity change, negative = inhibition” value turn out when `COc1cccc(OC)c1C(=O)Nc1cccc2ncccc12` was run?
A: The value was inactive: 0.0584%.

Q: With `C=CCN(Cc1ccc(OC)c(OC)c1)C(=O)c1cc2cc(F)ccc2[nH]1` as the compound, how does the “activity change, negative = inhibition” value read?
A: The value was inactive: 217%.
